Key:
[1] = UPLC-PDA, at the release and/or after 3 months
[2] = helium picnometry, mean of triplicate
[3] = DVS, 10% r.h. to 90% r.h.

## C[N+]1(C)CCC(OC(=O)C(O)(c2ccccc2)C2CCCC2)C1.[Br-] (racemic) [Example 1, (3S,2′R), (3R,2′S)-3-[(Cyclopentylhydroxyphenylacetyl)oxy]-1,1-dimethylpyrrolidinium bromide racemic mixture]
[1]
  degradation/impurities peaks (chemical stability): No degradation/impurities peaks were detected
[2]
  density of the powder: 1.3917 g/mL
[3]
  moisture uptake: less than 2.5%

— US9925168B2, “Preparation of micronized particles of an antimuscarinic compound by hydrodynamic cavitation” (CHIESI FARMACEUTICI S.P.A., priority 2016, dated 2018)
